Source: PubChem BioAssay AID2685 (National Center for Advancing Translational Sciences (NCATS), 2010)
This is one part of the list. Further columns of the screen follow, without active or inactive calls. The list favours compounds with an active or inconclusive main result. Potencies come from curve fits of mixed quality, noted in brackets.

Experiment: qHTS Assay for Lipid Storage Modulators in Drosophila S3 Cells;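 for cell number change: cells counted by Cell Tracker Red CMTPX staining in the red channel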
Conditions: BODIPY lipid droplet fluorescence, 18-24 h; for cell number change: measured here: cell count max response, cells fed with added oleic acid
Summary of the method: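 Laser-scanning cytometry quantifies lipid droplet accumulation (500–530 nm total intensity; droplet/cell object ratio) in oleic acid-fed (400 uM added) Drosophila S3 cells treated with a concentration series. 20 uM Triacsin C defined 100% inhibition.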

[1] = measured here: lipid fluorescence (Fed channel) AC50, cells fed with added oleic acid
[2] = measured here: cell number channel AC50, cells fed with added oleic acid

Compound | cell number change | AC50 [1] | AC50 [2]
COc1cccc(NC(=O)CCc2ccccc2)c1 | -9.64% | 4.11 µM [falling, single point] | –
O=C(Nc1ccc2oc(=O)ccc2c1)c1ccco1 | -13.2% | 1.84 µM [rising, partial curve] | –
NC(N)=NC(=O)Cc1c(Cl)cccc1Cl | 0.103% | 1.03 µM [falling, partial curve] | –
Cc1cc(N)n(-c2cc(C)c3ccccc3n2)n1 | -14.8% | 20.6 µM [rising, single point] | –
CCOC(=O)c1sc(NC(=O)C(CC)Sc2nnc3c4ccccc4n(CC)c3n2)nc1C (stereo not drawn) | -26.8% | 8.2 µM [falling, partial curve] | –
Cn1c2ccccc2c2c(C(=O)N3CCN(c4ccccc4)CC3)cn(C3CCCC3)c(=O)c21 | 6.56% | 1.3 µM [rising, partial curve] | –
COc1ccccc1CNCC(=O)Nc1ccc(N2CCOCC2)cc1 | 15.3% | 0.58 µM [rising, single point] | –
CC(C)(C)n1cnc2cc(NC(=O)c3ccco3)ccc21 | 6.58% | 0.112 µM [falling, full curve, poor fit] | –
CCC1=NN(C(=O)c2ccc([N+](=O)[O-])cc2)C(O)(c2ccccc2)C1 (stereo not drawn) | 0.587% | 29.1 µM [falling, single point] | –
NC(=O)NCCCC(NC(=O)c1ccc(C#CC2(O)CCCCC2)cc1)C(=O)O (stereo not drawn) | 6.51% | 0.00517 µM [falling, full curve, poor fit] | 0.00651 µM [falling, full curve, poor fit]
CCC(O)CNC(=O)NC(=C(Cl)Cl)c1ccc(C)c(F)c1 (stereo not drawn) | -12.8% | 20.6 µM [falling, partial curve, poor fit] | –
Cc1cccc(-c2nc(CN3CCN(C(=O)C4CCCO4)CC3)cs2)c1 (stereo not drawn) | -27.3% | 0.103 µM [falling, full curve, poor fit] | –
Cc1cccc(OCCCC(=O)NC2CCCCC2)c1 | -8.2% | 0.58 µM [rising, full curve, poor fit] | –
COc1ccc(C(=O)/C=C/c2ccccc2)c(O)c1 | -5.45% | – | –
Cc1c(C(=O)OCc2nc3ccsc3c(=O)[nH]2)oc2ccccc12 | 30.9% | – | –
CCNC(=S)Nc1cc2oc3ccccc3c2cc1OC | 25.9% | – | –
CCN1CCN(C(=O)C2CCC(=O)N(CCCN3CCCC3=O)C2)CC1 (stereo not drawn) | – | – | 0.0517 µM [falling, full curve, poor fit]
O=S(=O)(/N=C(\c1ccccc1)N1CCOCC1)c1cccs1 | -11.9% | 6.51 µM [falling, partial curve, poor fit] | –
CC(C)(C)n1ncc2c(=O)n(CC(=O)NCc3ccco3)cnc21 | -17.3% | 1.64 µM [falling, full curve, poor fit] | –
Cc1ccc(CNC(=O)c2cc3c(=O)n(C)c4ccccc4c3n2C)o1 | -25.2% | 7.31 µM [rising, partial curve] | –

Compound | cell number change | AC50 [1] | AC50 [2]
C#CCOCCOCCOCCNc1nc(N2CCN(C(=O)[C@H]([C@@H](C)O)n3cc(CCCCN)nn3)CC2)nc(N2CCN(C(=O)[C@H]([C@@H](C)CC)n3cc(CCCCN)nn3)CC2)n1 | -8.09% | 10.3 µM [rising, partial curve] | –
CCOc1cc(N2CCOCC2)c(OCC)cc1NC(=O)CN1C(=O)NC2(CCCCC2)C1=O | -1.07% | 18.4 µM [rising, single point] | –
COc1ccc(CN2CCC(=O)N([C@H](CO)CC(C)C)CC2)cc1 | 15% | – | –
CCCOC(=O)C1[C@H]2C(=O)N(CC3CCCO3)C[C@]23C=C[C@H]1O3 (stereo partly drawn) | 14.8% | 29.1 µM [falling, single point] | 6.51 µM [falling, single point]
Cc1ccc(N(C(C)C(=O)Nc2c(C)n(C)n(-c3ccccc3)c2=O)S(C)(=O)=O)cc1C (stereo not drawn) | – | – | 0.0651 µM [falling, full curve]
CC(=O)N(Cc1cc(=O)[nH]c2ccccc12)c1ccc(C)cc1C | 25.6% | 0.00517 µM [rising, full curve, poor fit] | 2.91 µM [rising, partial curve, poor fit]
O=C1N2CCSC2=NC1(Nc1nccs1)C(F)(F)F (stereo not drawn) | -16.8% | 20.6 µM [falling, partial curve, poor fit] | –
CCn1c(NCCc2ccc(OC)c(OC)c2)nc2c1c(=O)n(C)c(=O)n2C | 1.94% | 1.84 µM [rising, partial curve] | –
CCN(CC)C(=O)Oc1cc2c(-c3cc4cccc(OC)c4o3)cc(=O)oc2cc1C | 2.59% | – | –
CCN1CCN(C(=S)c2ccc(O)cc2)CC1 | -3.65% | 2.59 µM [falling, full curve, poor fit] | –
O=C(O)CCC(=O)Nc1ccc(N2CCOCC2)cc1 | -18.2% | 25.9 µM [falling, single point] | –
O=S(=O)(N=S(N1CCCCC1)N1CCCCC1)c1ccccc1 | -5.52% | 16.4 µM [rising, single point] | –
COc1ccc(CCCc2nnc(SCC(=O)N/N=C\c3ccc(O)c(OC)c3)o2)cc1C | -22.2% | 1.84 µM [falling, partial curve, poor fit] | –
CC(=O)c1ccc(NC(=O)Cn2cnc(S(=O)(=O)N3CCCC3)c2)cc1 | -19.5% | 29.1 µM [rising, single point] | –
CC(C)[C@@H]1CC[C@@H](C)c2c(-c3ccccc3)n[nH]c21 | -31.5% | 0.00461 µM [falling, full curve, poor fit] | 29.1 µM [falling, single point]
O=C(Cc1ccc(Cl)cc1)Nc1cccc(-c2nnc(-c3ccco3)o2)c1 | 21.8% | – | –
COc1ccccc1C(=O)Nc1ccc(S(=O)(=O)N2CCCC2)cc1 | -22.1% | 16.4 µM [rising, single point] | –
COc1ccccc1N1CCN(C(=O)c2cc3cc(Cl)ccc3[nH]2)CC1 | – | 29.1 µM [rising, single point] | –
COCc1cc(C)n(CC(=O)Nc2cc(C)cc(C)c2)c(=O)c1C#N | -2.05% | 0.82 µM [falling, full curve, poor fit] | –

Rewritten field by field: entries from further up.
C#CCOCCOCCOCCNc1nc(N2CCN(C(=O)[C@H]([C@@H](C)O)n3cc(CCCCN)nn3)CC2)nc(N2CCN(C(=O)[C@H]([C@@H](C)CC)n3cc(CCCCN)nn3)CC2)n1
  cell number change: -8.09%
  AC50 [1]: 10.3 µM [rising, partial curve]
COc1ccc(CN2CCC(=O)N([C@H](CO)CC(C)C)CC2)cc1
  cell number change: 15%
COc1ccc(CCCc2nnc(SCC(=O)N/N=C\c3ccc(O)c(OC)c3)o2)cc1C
  cell number change: -22.2%
  AC50 [1]: 1.84 µM [falling, partial curve, poor fit]
